The supplement of paper PMC11732987, “Enantioselective OTUD7B fragment discovery through chemoproteomics screening and high-throughput optimisation” (Communications Chemistry, 2025)
This is one part of the list. The data scatter; read single values as rough.

By UniProt entry, the sequences of proteins in these tests, tags left out. Where a name states a change or a piece, a line headed by the entry shows the natural chain unless it says otherwise.
UniProt Q96MF7: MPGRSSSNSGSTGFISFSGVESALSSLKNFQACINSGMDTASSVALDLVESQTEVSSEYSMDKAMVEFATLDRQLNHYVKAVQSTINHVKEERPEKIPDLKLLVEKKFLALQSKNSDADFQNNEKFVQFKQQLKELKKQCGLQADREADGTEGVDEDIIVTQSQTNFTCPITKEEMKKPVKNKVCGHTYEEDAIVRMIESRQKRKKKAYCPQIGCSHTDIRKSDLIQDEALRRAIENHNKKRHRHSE

These compounds were tested against T1, NSMCE2 C169 (UniProt Q96MF7) (assay: log2 mean competition ratio of IA-DTB cysteine labelling (DMSO/compound) (log2 ratio); higher = stronger cysteine engagement by compound). Conditions: 50 µM; treatment time: 4 h; cell line lysate: HEK293T.
T1 sequence (whole entry): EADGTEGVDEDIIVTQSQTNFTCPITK
Description: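 IA-DTB competitive cysteine chemoproteomics in HEK293T RIPA lysate. Lysates were treated with compound 29 or 30 at 50 or 200 µM for 4 h, then IA-DTB (500 µM, 1 h), trypsin-digested, NeutrAvidin-enriched and analysed by diaPASEF. Competition ratio = intensity DMSO / intensity compound (n=4 treated, n=64 DMSO); binding: mean log2 CR ≥ 1 and p ≤ 0.05 plus QC filters. Target is the cysteine site.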

Row | Structure (SMILES) | log2 mean competition ratio
1 | O=C(CCl)N[C@H]1CCCc2ccccc21 | -0.204
2 | O=C(CCl)N[C@@H]1CCCc2ccccc21 | 0.00936

Same assay, conditions: 200 µM; treatment time: 4 h; cell line lysate: HEK293T

Row | Structure (SMILES) | log2 mean competition ratio
3 | O=C(CCl)N[C@H]1CCCc2ccccc21 | -0.632
4 | O=C(CCl)N[C@@H]1CCCc2ccccc21 | -0.443
